From patent US6399759
Results are given in words; binding and its absence hold for the method and conditions named.

Target: T1, Soli E2 (Solenopsis invicta)
T1 sequence: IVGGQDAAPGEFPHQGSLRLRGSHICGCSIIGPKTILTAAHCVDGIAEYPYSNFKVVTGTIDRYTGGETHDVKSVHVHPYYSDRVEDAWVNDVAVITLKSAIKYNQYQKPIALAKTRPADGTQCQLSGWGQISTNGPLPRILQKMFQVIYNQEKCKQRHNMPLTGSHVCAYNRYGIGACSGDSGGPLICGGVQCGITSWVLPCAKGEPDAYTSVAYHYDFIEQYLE
Assay: inhibition of amidolytic activity, 0.02-50 nM inhibitor, 1.0 nM enzyme

binding: no binding (tested: IC50 > 50 nM)
B1: Lima Bean Trypsin Inhibitor (protein, UniProt P01056 1-83, looked up)
chain: SGHHEHSTDZPSZSSKPCCBHCACTKSIPPQCRCTDLRLDSCHSACKSCICTLSIPAQCVCBBIBDFCYEPCKSSHSDDDNNN
